Experimental data published in patent US20170348337A1, “MULTIFUNCTIONAL MEMBRANE-ACTIVE AMINOGLYCOSIDE-PEPTIDE CONJUGATES” (priority 2014, published 2017).
Some results were stated once for a whole list of compounds, not compound by compound.

Test system: MCP-1, MDC, IP-10 and IL-12p40 in human monocytes
Type: cell-based
Conditions: 24 hrs co-treatment
Description: Peripheral blood mononuclear cells (PBMCs) were isolated from whole blood of normal healthy donors as approved by the Institutional Review Board at UCLA using Ficoll-Paque gradients (GE Healthcare, Piscataway, N.J.) and plated onto six-well tissue culture plates (20×10^6-30×10^6 per well) for 2 hours in RPMI 1640 medium (Invitrogen Life Technologies, Carlsbad, Calif.) supplemented with 1% fetal calf serum (Omega Scientific, Tarzana, Calif.). Nonadherent cells were removed by rigorously washing three times with RPMI. Adherent monocytes were stimulated (co-treated) with media or P. acnes in the presence of tobramycin or Pentobra in 10% fetal calf serum. P. acnes was used at an MOI of 0.5 and cells were cultured for 24 hours at 37° C.
Monocytes were stimulated with media or P. acnes in the presence of tobramycin or Pentobra. Total RNA was isolated using Trizol reagent (Invitrogen, Carlsbad, Calif.) following manufacturer's protocol and treated with RNase-free DNase. RNA concentration and quality were determined by spectrophotometry. RNA samples were reverse-transcribed to cDNA using iScript cDNA synthesis kit (Bio-Rad, Hercules, Calif.). […] Gene expression level was quantified by the comparative method 2-ΔΔCT.
Monocytes were cultured and evaluated for cytokine and chemokine expression by ELISA and real time PCR after 24 hrs.

For `NC[C@H]1O[C@H](O[C@H]2[C@H](O)[C@@H](O[C@H]3O[C@H](CO)[C@@H](O)[C@H](N)[C@H]3O)[C@H](N)C[C@@H]2N)[C@H](N)C[C@@H]1O` [tobramycin, reference compound], the “inhibition of P. acnes-induced MCP-1, MDC, IP-10 expression” value was 40-100%.
